The results in this text go back to the supplement of paper PMC7877785.

The nature of this data set: self-splicing fitness, log relative to wild type (ln ratio); higher = more splicing; Tetrahymena group I intron in knt gene, E. coli kanamycin selection, DiMSum; sequences stand for … in CUCUCU…GGAGGGAAAAGUUAUCAGGCAUGCACCUGGUAGCUAGUCUUUAAACCAAUAGAUUGCAUCGGUUUAAAAGGCAAGACCGUCAAAUUGCGGGAAAGGGGUCAACAGCCGUUCAGUACCAAGUCUCAGGGGAAACUUUGAGAUGGCCUUGCAAAGGGUAUGGUAAUAAGCUGACGGACAUGGUCCUAACCACGCAGCCAAGUCCUAAGUCAACAGAUCUUCUGUUGAUAUGGAUGCAGUUCACAGACUAAAUGUCGGUCGGGGAAGAUGUAUUCUUCUCAUAAGAUAUAGUCGGACCUCUCCUUAAUGGGAGCUAGCGGAUGAAGUGAUGCAACACUGGAGCCGCUGGGAACUAAUUUGUAUGCGAAAGUAUAUUGAUUAGUUUUGGAGUACUCGUGGUCG
The procedure, abridged:
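DiMSum derived fitness as the error-weighted combination of fold changes across replicates, kanamycin versus no kanamycin, normalised to wild type. E. coli BL21(DE3) held the library, which randomised all eight P1ex-region intron nucleotides within the knt kanamycin-resistance gene on pET-22b(+). Six replicate transformations grew overnight at 37°C or 30°C on LB agar with or without 25 μg/mL kanamycin, also containing 100 μg/mL carbenicillin, 50 μM IPTG and 0.2% rhamnose, and pooled colonies were amplicon-sequenced on an Illumina HiSeq 2500.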

± gives the uncertainty stated by the source. Many of these values have a large error.

In the case of CUCCAGCAAUAUUACGCACC, the “self-splicing fitness (ln)” value (30 °C) is -0.926 ± 0.51.
Turning to AUCGAGCAAUAUUACGAAGC, the “self-splicing fitness (ln)” value (37 °C) is -0.609 ± 0.58.
Take UAAGAGCAAUAUUACGGAGC: the “self-splicing fitness (ln)” value (37 °C) is -3.69 ± 1.
Regarding UGAGAGCAAUAUUACGAAAC, where the note is “30 °C”, the “self-splicing fitness (ln)” value was -1.93 ± 0.69.
In the case of AGGAAGCAAUAUUACGAGAA, the “self-splicing fitness (ln)” value (30 °C) is -3.01 ± 0.54.
UAGGAGCAAUAUUACGGUAG: the “self-splicing fitness (ln)” value by setting is: (30 °C) -3.52 ± 0.17; (37 °C) -1.56 ± 0.13.
As for CUUGAGCAAUAUUACGGAGC, the “self-splicing fitness (ln)” value (30 °C) is -4.72 ± 0.72.
On the same count and under the same terms, next, UAGCAGCAAUAUUACGACAC: -3.35 ± 0.62.
In the case of CCCAAGCAAUAUUACGGCGC, for the setting “30 °C”, the “self-splicing fitness (ln)” value is -4.63 ± 0.59.
In the case of UCUCAGCAAUAUUACGUCAU, the “self-splicing fitness (ln)” value is -3.13 ± 0.2 (30 °C) and -3.29 ± 0.27 (37 °C).
As for GGGUAGCAAUAUUACGCGUC, the “self-splicing fitness (ln)” value (30 °C) was -2.81 ± 1.1.
On to GUUUAGCAAUAUUACGAGAU, for which the “self-splicing fitness (ln)” value runs as follows: (30 °C) -0.826 ± 0.78; (37 °C) -2.23 ± 1.1.
On to GACGAGCAAUAUUACGACAA, for which the “self-splicing fitness (ln)” value (30 °C) is -3.73 ± 0.61.
The same measure, in the same setting: next, UAAUAGCAAUAUUACGCGGA: -2.99 ± 0.66; CUAGAGCAAUAUUACGCCAC: -3.97 ± 1.
Consider AUCAAGCAAUAUUACGGUGG, for which the “self-splicing fitness (ln)” value by setting is: (30 °C) -3.54 ± 0.19; (37 °C) -2.63 ± 0.2.
Regarding CAUGAGCAAUAUUACGUCUC, the “self-splicing fitness (ln)” value is, setting by setting: (30 °C) -2.83 ± 0.22; (37 °C) -2.83 ± 0.53.
On to GGACAGCAAUAUUACGACCC, for which the “self-splicing fitness (ln)” value (37 °C) came out at 0.0981 ± 1.2.
Regarding CGCGAGCAAUAUUACGAUAA, the “self-splicing fitness (ln)” value was -3.48 ± 0.56 (30 °C) and -3.08 ± 1 (37 °C).
In the same order, the values of GCGCAGCAAUAUUACGUAGU are -0.438 ± 0.06 and 0.18 ± 0.076.
The matching figures for AGAAAGCAAUAUUACGGAAG: -2.64 ± 0.19 and -1.71 ± 0.22.
Turning to UCUCAGCAAUAUUACGCCCG, the “self-splicing fitness (ln)” value (37 °C) is -1.52 ± 0.67.
Turning to CCGGAGCAAUAUUACGCCGG, for the setting “30 °C”, the “self-splicing fitness (ln)” value is -5.38 ± 0.71.
On the same count and under the same terms, to CAGCAGCAAUAUUACGUUAC belongs -3.83 ± 0.6.
GCUGAGCAAUAUUACGUGAC: the “self-splicing fitness (ln)” value is -2.3 ± 0.8 (30 °C) and -2.05 ± 0.8 (37 °C).
In the case of UGCGAGCAAUAUUACGCCGA, the “self-splicing fitness (ln)” value (30 °C) was -1.97 ± 1.2.
For the sequence UCAUAGCAAUAUUACGCGAU, the “self-splicing fitness (ln)” value reads like this: (30 °C) -1.9 ± 0.22; (37 °C) -3.25 ± 0.74.
For the sequence AACGAGCAAUAUUACGAAGG, the “self-splicing fitness (ln)” value (30 °C) is -5.17 ± 0.51.
Still for that read-out and setting: next, UUUUAGCAAUAUUACGUACU: -2.12 ± 0.76; UCGAAGCAAUAUUACGCUUG: -4.28 ± 0.59.
Still for that read-out and setting: to CAAUAGCAAUAUUACGCAUC belongs -3.39 ± 0.73.
For the sequence GAGGAGCAAUAUUACGUCAG, the “self-splicing fitness (ln)” value (37 °C) is -2.79 ± 0.63.
For the sequence CGGAAGCAAUAUUACGGGAC, under “37 °C”, the “self-splicing fitness (ln)” value is -1.2 ± 0.73.
On the same count and under the same terms, to UCAUAGCAAUAUUACGGUUC belongs -3.07 ± 1.
On to CUCGAGCAAUAUUACGCUUG, for which the “self-splicing fitness (ln)” value by setting is: (30 °C) -3.81 ± 0.52; (37 °C) -3.27 ± 0.6.
Regarding CGAGAGCAAUAUUACGUGGU, where the note is “30 °C”, the “self-splicing fitness (ln)” value was -4.72 ± 0.71.
As to UCGUAGCAAUAUUACGUAGC, for the setting “37 °C”, the “self-splicing fitness (ln)” value is -3.28 ± 0.61.
Still for that read-out and setting: next, UGUGAGCAAUAUUACGAAGU: -1.69 ± 0.82.
Consider GAAAAGCAAUAUUACGAUGA, for which the “self-splicing fitness (ln)” value was -0.7 ± 0.1 (30 °C) and -0.295 ± 0.11 (37 °C).
Take CGAGAGCAAUAUUACGUAUA: the “self-splicing fitness (ln)” value (37 °C) was -4.33 ± 0.51.
For CCACAGCAAUAUUACGAGCG, the “self-splicing fitness (ln)” value (30 °C) is -0.707 ± 0.048 and the “self-splicing fitness (ln)” value (37 °C) was determined as 0.184 ± 0.065.
In the same order, the values of UAAUAGCAAUAUUACGACUU are -0.84 ± 0.1 and -0.376 ± 0.094.
In the same order, the values of UUCCAGCAAUAUUACGCCGC are -2.6 ± 0.63 and -2.9 ± 0.75.
Turning to UAUUAGCAAUAUUACGAAAC, the “self-splicing fitness (ln)” value (30 °C) was -4.01 ± 0.73.
For GUGGAGCAAUAUUACGACCC, the “self-splicing fitness (ln)” value was -0.828 ± 0.58 (30 °C) and -0.506 ± 0.87 (37 °C).
As to CUUAAGCAAUAUUACGAGAC, the “self-splicing fitness (ln)” value (30 °C) is -3.91 ± 0.6.
Take CUUAAGCAAUAUUACGACCU: the “self-splicing fitness (ln)” value (37 °C) was -1.47 ± 0.63.
For the sequence GCAGAGCAAUAUUACGUCGA, for the setting “30 °C”, the “self-splicing fitness (ln)” value is -4.03 ± 0.73.
Consider GUGCAGCAAUAUUACGACGU, for which the “self-splicing fitness (ln)” value is, setting by setting: (30 °C) -0.779 ± 0.11; (37 °C) 0.0794 ± 0.13.
The matching figures for CAGGAGCAAUAUUACGAAGC: -4.53 ± 0.59 and -1.94 ± 0.51.
The matching figures for AUAUAGCAAUAUUACGCGGC: -3.07 ± 0.61 and -1.64 ± 0.6.
Take UCAUAGCAAUAUUACGGAAC: the “self-splicing fitness (ln)” value (37 °C) was -1.88 ± 1.2.
For the sequence GGUGAGCAAUAUUACGCCGC, the “self-splicing fitness (ln)” value (30 °C) was -0.844 ± 1.
For GGCUAGCAAUAUUACGCCCG, the “self-splicing fitness (ln)” value is, setting by setting: (30 °C) -4.06 ± 0.47; (37 °C) -3.68 ± 0.26.
On to CUUUAGCAAUAUUACGAACC, for which, under “37 °C”, the “self-splicing fitness (ln)” value was -2.44 ± 0.84.
For the sequence CAGUAGCAAUAUUACGAGCU, the “self-splicing fitness (ln)” value is -3.07 ± 0.28 (30 °C) and 0.322 ± 0.19 (37 °C).
In the same order, the values of CCAAAGCAAUAUUACGAUUG are -1.36 ± 0.06 and -0.695 ± 0.081.
Turning to CUGCAGCAAUAUUACGCUAA, where the note is “37 °C”, the “self-splicing fitness (ln)” value was -3.1 ± 0.52.
Consider UCUAAGCAAUAUUACGAAUA, for which the “self-splicing fitness (ln)” value (30 °C) was -3 ± 0.65.
On to AACGAGCAAUAUUACGCCAU, for which the “self-splicing fitness (ln)” value was -2.91 ± 0.27 (30 °C) and -1.52 ± 0.27 (37 °C).
Consider UAUGAGCAAUAUUACGUCCC, for which the “self-splicing fitness (ln)” value (37 °C) was -2.67 ± 1.1.
As for UGGCAGCAAUAUUACGGUCG, the “self-splicing fitness (ln)” value is -0.881 ± 0.083 (30 °C) and 0.133 ± 0.13 (37 °C).
The matching figures for UGAUAGCAAUAUUACGAUCA: -2.14 ± 0.65 and 0.406 ± 1.2.
The matching figures for CUUGAGCAAUAUUACGUCCC: -3.07 ± 0.64 and -1.04 ± 0.64.
The matching figures for CUCUAGCAAUAUUACGGUAA: -2.38 ± 0.24 and -2.14 ± 0.21.
Take UAACAGCAAUAUUACGCCUC: the “self-splicing fitness (ln)” value was -2.18 ± 0.35 (30 °C) and -2.06 ± 0.33 (37 °C).
In the case of CUUGAGCAAUAUUACGAGAG, the “self-splicing fitness (ln)” value (30 °C) was -4.16 ± 1.
As for UAAUAGCAAUAUUACGCAUG, the “self-splicing fitness (ln)” value was -1.4 ± 0.085 (30 °C) and 0.553 ± 0.13 (37 °C).
For UAAUAGCAAUAUUACGGAGC, the “self-splicing fitness (ln)” value (37 °C) is -1.31 ± 0.63.
For AUAAAGCAAUAUUACGGGUU, the “self-splicing fitness (ln)” value is, setting by setting: (30 °C) -2.17 ± 0.09; (37 °C) -1.17 ± 0.098.
In the case of CGACAGCAAUAUUACGUCCC, the “self-splicing fitness (ln)” value (37 °C) is 0.827 ± 0.58.
As for UGCGAGCAAUAUUACGAGAC, the “self-splicing fitness (ln)” value (30 °C) was -3.16 ± 1 and the “self-splicing fitness (ln)” value (37 °C) was -2.39 ± 1.1.
Take UUCAAGCAAUAUUACGCCGC: the “self-splicing fitness (ln)” value is, setting by setting: (30 °C) -4.93 ± 1; (37 °C) -1.4 ± 0.55.
Take GGUGAGCAAUAUUACGUGUU: the “self-splicing fitness (ln)” value (30 °C) was -5.04 ± 0.58.
Same read-out and setting: to UGAGAGCAAUAUUACGGAAA belongs -3.06 ± 1.1; to GCGUAGCAAUAUUACGCGAA, -2.65 ± 1.1.
